Measurements reported in PubChem BioAssay AID1259254 (NCATS, 2017)
Purpose: 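Finding genes that stop cells copying their DNA twice in one cycle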 (primary screen). System: human HCT116 colorectal cancer cells. Knock-down reagent: single siRNA against human genes. Duration: 3 days. Measured: 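Imaged Hoechst DNA stain sorts each cell into a cycle phase by DNA amount; per plate, G2 fraction set to 0% for non-targeting and 100% for GMNN siRNA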. Scale: G2 robust z-score: higher = more G2 cells, more excess DNA replication. Rule for the call: 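Active siRNAs have a G2 robust z of 5 or more median absolute deviations over the median, which in these data means about 38% or higher of GMNN control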.
In all, the deposit lists about 59,000 reagents; this is a part drawn at random. In the full data, about 1,550 (2.6%) were called active. 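G2 share is only a proxy for re-replication; each gene was hit by three separate siRNAs, and active genes were retested.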 Entries without a mark were called inactive. The numbers tell different reagents against one gene apart. Not all columns of the deposit are shown. No sequences are given here. The record does not give: the amount of reagent.

KRT80 (keratin 80) #1 → G2 robust z-score: -0.767
KRT80 (keratin 80) #2 → G2 robust z-score: -0.981
KRT80 (keratin 80) #3 → G2 robust z-score: -0.975
HMGB3P22 (high mobility group box 3 pseudogene 22) #1 → G2 robust z-score: 0.128
HMGB3P22 (high mobility group box 3 pseudogene 22) #2 → G2 robust z-score: -1.32
HMGB3P22 (high mobility group box 3 pseudogene 22) #3 → G2 robust z-score: -0.795
OR9Q1 (olfactory receptor family 9 subfamily Q member 1) #1 → G2 robust z-score: 0.608
OR9Q1 (olfactory receptor family 9 subfamily Q member 1) #2 → G2 robust z-score: -0.449
OR9Q1 (olfactory receptor family 9 subfamily Q member 1) #3 → G2 robust z-score: 2.22
VCL (vinculin) #1 → G2 robust z-score: 0.121
VCL (vinculin) #2 → G2 robust z-score: -0.57
VCL (vinculin) #3 → G2 robust z-score: -0.797
MMP12 (matrix metallopeptidase 12) #1 → G2 robust z-score: 2.38
MMP12 (matrix metallopeptidase 12) #2 → G2 robust z-score: 0.66
MMP12 (matrix metallopeptidase 12) #3 → G2 robust z-score: -1.24
CENPS (centromere protein S) #1 → G2 robust z-score: 1.3
CENPS (centromere protein S) #2 → G2 robust z-score: -1.05
CENPS (centromere protein S) #3 → G2 robust z-score: -0.292

Copied from above, 2 entries:
OR9Q1 (olfactory receptor family 9 subfamily Q member 1) #3 → G2 robust z-score: 2.22
VCL (vinculin) #1 → G2 robust z-score: 0.121
